These results are taken from article PMC7459424.

Amino acid sequences for entries named in this document (tags omitted).
UniProt P70191: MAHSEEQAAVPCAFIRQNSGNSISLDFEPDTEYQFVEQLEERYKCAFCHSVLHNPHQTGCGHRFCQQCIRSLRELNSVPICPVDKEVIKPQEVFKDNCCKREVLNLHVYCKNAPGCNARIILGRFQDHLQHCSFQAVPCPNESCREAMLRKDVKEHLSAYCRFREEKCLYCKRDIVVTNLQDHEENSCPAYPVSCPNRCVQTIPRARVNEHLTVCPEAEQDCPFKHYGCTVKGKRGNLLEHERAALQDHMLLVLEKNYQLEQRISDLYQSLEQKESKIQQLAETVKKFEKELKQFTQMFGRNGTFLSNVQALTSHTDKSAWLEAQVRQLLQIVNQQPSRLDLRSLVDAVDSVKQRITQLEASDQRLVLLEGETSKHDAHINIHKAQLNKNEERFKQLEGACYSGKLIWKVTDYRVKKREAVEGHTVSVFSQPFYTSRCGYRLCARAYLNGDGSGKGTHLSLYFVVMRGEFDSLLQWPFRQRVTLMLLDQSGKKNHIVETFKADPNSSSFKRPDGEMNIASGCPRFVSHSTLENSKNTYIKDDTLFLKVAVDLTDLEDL

For experiment [1], the target named is T1, recombinant Strep-Flag-IL-17 (SF-IL-17), murine (mouse) (UniProt Q62386).
T1 sequence: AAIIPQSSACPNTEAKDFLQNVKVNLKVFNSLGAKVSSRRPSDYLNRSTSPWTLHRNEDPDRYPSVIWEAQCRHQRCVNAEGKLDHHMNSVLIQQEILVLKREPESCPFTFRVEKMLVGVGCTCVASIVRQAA
Briefly: affinity purification with mass spectrometry; ST2 cells stimulated 15 min with murine SF-IL-17 (500 ng/ml), lysed in 1% DDM; the ligand isolated by consecutive anti-Flag and Strep-Tactin purification; MS with iBAQ; wild-type cells, and TBK1/IKKε DKO, NEMO KO, ACT1 KO and reconstituted TRAF6 KO cells for comparison; only the target purified.

Experiment [2] concerns the target T1, recombinant Strep-Flag-IL-17 (SF-IL-17), murine (mouse). Briefly: affinity purification with mass spectrometry; control: ST2 cells first solubilised in 1% DDM, 3 μg SF-IL-17 added post-lysis; consecutive anti-Flag and Strep-Tactin purification; MS; only the target purified.
The target is the same in experiment [3]. Briefly: affinity purification with mass spectrometry; ST2 cells stimulated 15 min with murine SF-IL-17 (500 ng/ml), lysed in 1% DDM; the ligand isolated by consecutive anti-Flag and Strep-Tactin purification; MS with iBAQ; wild-type cells, and TBK1/IKKε DKO, NEMO KO, ACT1 KO and reconstituted TRAF6 KO cells for comparison; only the target purified. The source holds these as a separate data set.

Results are given in words; binding and its absence hold for the method and conditions named. Binding seen in cells or lysates may run through a third protein. Here binding means that the protein was enriched with, or labelled near, the bait; the list need not be complete. For part of these data: A no says only that the protein was not detected with the bait. Where a sequence is shown, tags or fusion partners need not be part of it.

Regarding TRAF5 (from UniProt P70191 1-558), the binding entry in experiment [1] was “no binding”.

B1: IL-17RC (receptor, UniProt Q8K4C2 22-698)
chain: ERLMEPQDTARCSLGLSCHLWDGDVLCLPGSLQSAPGPVLVPTRLQTELVLRCPQKTDCALCVRVVVHLAVHGHWAEPEEAGKSDSELQESRNASLQAQVVLSFQAYPIARCALLEVQVPADLVQPGQSVGSAVFDCFEASLGAEVQIWSYTKPRYQKELNLTQQLPDCRGLEVRDSIQSCWVLPWLNVSTDGDNVLLTLDVSEEQDFSFLLYLRPVPDALKSLWYKNLTGPQNITLNHTDLVPCLCIQVWSLEPDSERVEFCPFREDPGAHRNLWHIARLRVLSPGVWQLDAPCCLPGKVTLCWQAPDQSPCQPLVPPVPQKNATVNEPQDFQLVAGHPNLCVQVSTWEKVQLQACLWADSLGPFKDDMLLVEMKTGLNNTSVCALEPSGCTPLPSMASTRAARLGEELLQDFRSHQCMQLWNDDNMGSLWACPMDKYIHRRWVLVWLACLLLAAALFFFLLLKKDRRKAARGSRTALLLHSADGAGYERLVGALASALSQMPLRVAVDLWSRRELSAHGALAWFHHQRRRILQEGGVVILLFSPAAVAQCQQWLQLQTVEPGPHDALAAWLSCVLPDFLQGRATGRYVGVYFDGLLHPDSVPSPFRVAPLFSLPSQLPAFLDALQGGCSTSAGRPADRVERVTQALRSALDSCTSSSEAPGCCEEWDLGPCTTLE
B1: the binding result in experiment [2] is “no binding (only SF-IL-17 added after cell lysis)”; in experiment [3], “binds”.
